# Reference: the supplement of paper PMC8256030
# “And” between values parts separate entries of the source, which are not always exact repeats. Equal entries are not always repeated. Structures can show the parent of a compound that is named as a salt. This is one part of the list. Single values are uncertain here, since repeats match poorly.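 HEK293T cells were given each compound shortly before transfection with a reporter in which red mCherry is followed by the SARS-CoV-2 frameshift element and then GFP in the −1 frame, so GFP appears only after frameshifting.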
# System: SARS-CoV-2 -1 PRF reporter mCherry-FSE-GFP(-1)
# Assay: mCherry (red) intensity as percent of control; higher = higher upstream reporter expression
# Conditions: 10 µM; 24 h; HEK293T
row,Structure (SMILES),mCherry
1,CC[C@]1(O)C[C@H]2CN(CCc3c([nH]c4ccccc34)[C@@](C(=O)OC)(c3cc4c(cc3OC)N(C=O)[C@H]3[C@@](O)(C(=O)OC)[C@H](OC(C)=O)[C@]5(CC)C=CCN6CC[C@]43[C@@H]65)C2)C1 [Vincristine sulfate],56%
2,C[C@@H](O[C@H]1OCCN(Cc2n[nH]c(=O)[nH]2)[C@H]1c1ccc(F)cc1)c1cc(C(F)(F)F)cc(C(F)(F)F)c1 [Emend],117%
3,CC(CN(C)C)CN1c2ccccc2Sc2ccc(C#N)cc21 (stereo not given) [cyamemazine],121%
4,CC(=O)Nc1c(I)c(NC(C)=O)c(I)c(C(=O)O)c1I [sodium amidotrizoate],124%
5,C[C@H](C#Cc1ccc(Cc2ccc(F)cc2)s1)N(O)C(N)=O [atreleuton],55.8%
6,Cc1cc2c(cc1CC(=O)c1sccc1S(=O)(=O)Nc1onc(C)c1Cl)OCO2 [Sitaxentan],82.5%
7,CCCCCCCCCCCCCCOS(=O)(=O)O [Sodium Tetradecyl Sulfate],103%
8,OC[C@H]1O[C@@H](c2ccc(Cl)c(Cc3ccc(O[C@H]4CCOC4)cc3)c2)[C@H](O)[C@@H](O)[C@@H]1O [Empagliflozin],105%
9,CC(C)CCC(=O)CC1c2ccccc2C(=O)N1c1ccc2ccc(Cl)nc2n1 (stereo not given) [pagoclone],92.8%
10,CCN(CC)CCNC(=O)c1cc(S(C)(=O)=O)ccc1OC [tiapride],125%
11,CC(=O)[C@@]1(O)CC[C@H]2[C@@H]3C=C(Cl)C4=CC(=O)CC[C@]4(C)[C@H]3CC[C@@]21C [chlormadinone],97.7%
12,CCCC(CCC)C(N)=O [valpromide],81.1%
13,CCCCCCCCCCCCCCCCNc1ccc(C(=O)O)cc1 [cetaben],69.7%
14,CNC[C@H](O)c1ccc(O)c(O)c1 [epinephrine],90.6%
15,CCNC(=O)[C@@H]1CCCN1C(=O)[C@H](CCCNC(=N)N)NC(=O)[C@H](CC(C)C)NC(=O)[C@@H](Cc1cn(Cc2ccccc2)cn1)NC(=O)[C@H](Cc1ccc(O)cc1)NC(=O)[C@H](CO)NC(=O)[C@H](Cc1c[nH]c2ccccc12)NC(=O)[C@H](Cc1cnc[nH]1)NC(=O)[C@@H]1CCC(=O)N1 [histrelin],85.6%
16,COc1ccc(C2CNC(=O)NC2)cc1O[C@H]1C[C@@H]2CC[C@H]1C2 [atizoram],110%
17,C[C@@H]1CC(=O)NN=C1c1ccc(NN=C(C#N)C#N)cc1 [levosimendan],105%
18,NC(=O)C(c1ccccc1)(c1ccc(F)cc1)c1ccc(F)cc1 [senicapoc],72.7%
19,O=C(O)CN(CCN(CC(=O)O)CC(=O)O)CCN(CC(=O)O)CC(=O)O [pentetic acid],110%
20,CC(C)(C)NCC(O)COc1cccc2c1CCC(=O)N2 (stereo not given),91.9%

row,Structure (SMILES),mCherry
1,CC(C)OC(=O)CCC/C=C\C[C@@H]1[C@@H](/C=C/C(F)(F)COc2ccccc2)[C@H](O)C[C@@H]1O [Tafluprost],80.3%
2,CCOCCn1cc(C(=O)Nc2ccc(-n3nc(-c4cccnc4)cc3C(F)(F)F)cn2)ccc1=O,28.8%
3,N[C@H](Cc1cc(I)c(Oc2cc(I)c(O)c(I)c2)c(I)c1)C(=O)O [Choloxin],102%
4,Cc1ccnc2c1CCCC2C(N)=S (stereo not given) [isotiquimide],131%
5,COc1cccc(CCc2ccccc2OCC(CN(C)C)OC(=O)CCC(=O)O)c1 (stereo not given) [sarpogrelate],108%
6,N=C(N)c1ccc(N=NNc2ccc(C(=N)N)cc2)cc1,119%
7,CO/N=C(\C(=O)N[C@@H]1C(=O)N2C(C(=O)O)=C(COC(C)=O)CS[C@H]12)c1csc(N)n1 [Claforan],99.4%
8,O=C(c1cccnc1)N1CCOCC1 [nicopholine],115%
9,CC(=O)OCC(=O)[C@@]1(O)CC[C@H]2[C@@H]3CCC4=CC(=O)C=C[C@]4(C)[C@@]3(F)[C@@H](O)C[C@@]21C,123%
10,CCCOc1cc(N)ccc1C(=O)OCCN(CC)CC [propoxycaine],83.4%
11,Cc1nc(-c2ccc(OCC(C)C)c(C#N)c2)sc1C(=O)O [febuxostat],109%
12,CC(O)Cn1cnc2c1c(=O)n(C)c(=O)n2C (stereo not given) [proxyphylline],119%
13,CN1C(=O)CC(c2ccccc2)C1=O (stereo not given) [phensuximide],141%
14,COCC1=C(C(=O)OC(C)OC(=O)OC(C)C)N2C(=O)[C@@H](NC(=O)/C(=N\OC)c3csc(N)n3)[C@H]2SC1 (stereo not given in full),96.7%
15,O=NN(CCCl)C(=O)NCCCl [carmustine],117%
16,CN1CCN(CC(=O)N2c3ccccc3C(=O)Nc3cccnc32)CC1 [pirenzepine],98.3% and 119%
17,CO[C@@H]1[C@@H](OC(=O)c2ccc(C)[nH]2)[C@@H](O)[C@@H](Oc2ccc3c(O)c(NC(=O)c4c[nH]c(C(=O)Nc5c(O)c6ccc(O[C@H]7OC(C)(C)[C@H](OC)[C@@H](OC(=O)c8ccc(C)[nH]8)[C@H]7O)c(C)c6oc5=O)c4C)c(=O)oc3c2C)OC1(C)C [coumamycin],1100%
18,NC(N)=NCCCC(N)C(=O)O (stereo not given),106%
19,CC(C)(C)C(=O)OCOP(=O)(COCCn1cnc2c(N)ncnc21)OCOC(=O)C(C)(C)C [Hepsera],127%
20,CC(C(=O)O)c1ccc(N2Cc3ccccc3C2=O)cc1 (stereo not given) [indoprofen],98%

# Random excerpt: 2 records from the list.
row,Structure (SMILES),mCherry
17,CO[C@@H]1[C@@H](OC(=O)c2ccc(C)[nH]2)[C@@H](O)[C@@H](Oc2ccc3c(O)c(NC(=O)c4c[nH]c(C(=O)Nc5c(O)c6ccc(O[C@H]7OC(C)(C)[C@H](OC)[C@@H](OC(=O)c8ccc(C)[nH]8)[C@H]7O)c(C)c6oc5=O)c4C)c(=O)oc3c2C)OC1(C)C [coumamycin],1100%
19,CC(C)(C)C(=O)OCOP(=O)(COCCn1cnc2c(N)ncnc21)OCOC(=O)C(C)(C)C [Hepsera],127%
